Laboratory results as given in PubChem BioAssay AID212 (DTP/NCI, 2004).
The list does not hold the whole screen: it gathers tests that were run many times, whatever their T/C, doses with no T/C, and many T/C values between a quarter and a half above the control. Further doses and runs are listed elsewhere. T/C: endpoint of the treated group in % of that of the vehicle group. Schedules are NCI's codes, read here as Q, the interval in days (D) or hours (H), X, the number of doses. Some T/C values carry the count of animals alive at the toxicity check (mostly the fifth day); where none is given, no animal had died by that day. Some doses were run more than once; the values are given in rising order. Brackets with × stand for listed records that agree. Some doses have a count of surviving animals in place of a T/C: the source files T/C as zero there, which appears to mark a toxic dose or a test without result, not a measured value. Survivors were counted at the toxicity check, usually on the fifth day, unless a day is given; later deaths do not show. Where a SMILES comes first, the peptide text is derived from it. Bridges are numbered along the chain shown (N, C = ends). The star is where a group is joined. Trt = c1ccc(C(c2ccccc2)(c2ccccc2)*)cc1; Cbz = O=C(OCc1ccccc1)*

Test system: BDF1 mice, colon carcinoma 38 sc, T/C %
Test: NCI In Vivo Anticancer Drug Screen. Data for tumor model Colon Carcinoma 38 (subcutaneous) in B6D2F1 (BDF1) mice
Conditions: T/C endpoint: median tumor weight (est.), higher T/C = larger tumour; for T/C: evaluated on day 20
Outline: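 Mice with transplanted tumors are treated with compound or vehicle. Survival or tumor size is then measured in both groups. The ratio of treated to control gives the reported figure.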

[1] = dose: 10.0 mg/kg/injection, schedule: Q07DX002 (ip), vehicle: saline
[2] = dose: 20.0 mg/kg/injection, schedule: Q07DX002 (ip), vehicle: saline
[3] = dose: 32.0 mg/kg/injection, schedule: Q07DX002 (ip), vehicle: saline
[4] = dose: 40.0 mg/kg/injection, schedule: Q07DX002 (ip), vehicle: saline
[5] = dose: 25.0 mg/kg/injection, schedule: Q07DX002 (ip), vehicle: saline with Tween-80
[6] = dose: 400.0 mg/kg/injection, schedule: Q07DX002 (ip), vehicle: saline with Tween-80
[7] = dose: 800.0 mg/kg/injection, schedule: Q07DX002 (ip), vehicle: saline with Tween-80
[8] = dose: 200.0 mg/kg/injection, schedule: Q07DX002 (ip), vehicle: saline with Tween-80
[9] = dose: 25.0 mg/kg/injection, schedule: Q07DX002 (ip), vehicle: saline
[10] = dose: 800.0 mg/kg/injection, schedule: Q07DX002 (ip), vehicle: saline

## N[C@@H](Cc1ccc(N(CCCl)CCCl)cc1)C(=O)O
dose: 1.0 mg/kg/injection, schedule: Q07DX002 (ip), vehicle: Klucel (hydroxypropylcellulose) (HPC)
  T/C: 144 % of control
dose: 1.0 mg/kg/injection, schedule: Q07DX002 (ip), vehicle: saline
  T/C: 133 % of control
dose: 2.5 mg/kg/injection, schedule: Q07DX002 (ip), vehicle: saline
  T/C: 45, 56 [9 of 10 alive on day 20], 61, 71, 77, 97 (2×), 101, 101 [9 of 10 alive on day 20], 116 % of control
dose: 2.5 mg/kg/injection, schedule: Q07DX003 (ip), vehicle: saline
  T/C: 25 [9 of 10 alive], 29, 61, 106 % of control
dose: 5.0 mg/kg/injection, schedule: Q07DX002 (ip), vehicle: saline
  T/C: 27, 43, 46, 49, 50, 59 [9 of 10 alive], 83, 89 (2×), 105, 112 % of control
dose: 5.0 mg/kg/injection, schedule: Q07DX003 (ip), vehicle: saline
  T/C: 19, 21, 22, 53, 99 % of control
dose: 8.0 mg/kg/injection, schedule: Q07DX002 (ip), vehicle: Klucel (hydroxypropylcellulose) (HPC)
  T/C: 146 % of control
[1]
  T/C: 4, 7, 17, 25, 28, 33, 53, 87, 98 % of control
  survivor count: 5 of 10 on day 20
dose: 10.0 mg/kg/injection, schedule: Q07DX003 (ip), vehicle: saline
  T/C: 6 [7 of 10 alive], 8, 19, 34 % of control
[2]
  T/C: 3 [7 of 10 alive on day 20], 59 [9 of 10 alive], 63 % of control [8 of 10 alive on day 20]
  survivor count: 0 of 10 on day 20, 2 of 10 on day 20, 4 of 10, 5 of 10 on day 20
dose: 20.0 mg/kg/injection, schedule: Q07DX002 (ip), vehicle: suspension in saline
  survivor count: 0 of 10 on day 20, 2 of 10 on day 20, 6 of 10 on day 20
dose: 20.0 mg/kg/injection, schedule: Q07DX003 (ip), vehicle: saline
  survivor count: 1 of 10 and 5 of 10
dose: 30.0 mg/kg/injection, schedule: Q07DX002 (ip), vehicle: Klucel (hydroxypropylcellulose) (HPC)
  survivor count: 0 of 10 on day 20
[3]
  survivor count: 0 of 10 on day 20
[4]
  survivor count: 0 of 10 on day 20, 3 of 10 on day 20, 3 of 9 on day 20
dose: 40.0 mg/kg/injection, schedule: Q07DX002 (ip), vehicle: suspension in saline
  survivor count: 0 of 10 on day 20

## CC1(C)OC2C(COC(=O)c3ccc([N+](=O)[O-])cc3)OC(NC(=O)N(CCCl)N=O)C2O1 (configuration not stated)
[5]
  T/C: 147 % of control
[6]
  survivor count: 1 of 10 on day 20

## CCCCOCN(COCCCC)C(C)Cc1ccccc1 (configuration not stated)
[6]
  survivor count: 3 of 10 on day 20 and 6 of 10 on day 20
[7]
  survivor count: 0 of 10 on day 20

## S=P(N1CC1)(N1CC1)N1CC1
dose: 24.0 mg/kg/injection, schedule: Q07DX003 (ip), vehicle: saline
  survivor count: 2 of 6 on day 20

## O=C(O)C1Cc2nc[nH]c2CN1CO (configuration not stated)
[5]
  T/C: 138 % of control
[8]
  T/C: 139 % of control
[6]
  T/C: 138 % of control [9 of 10 alive on day 20]
[7]
  T/C: 138 % of control [7 of 10 alive on day 20]

## COc1ccc(OC)c(Cc2cnc3nc(N)nc(N)c3c2C)c1
dose: 200.0 mg/kg/injection, schedule: Q07DX002 (ip), vehicle: water
  survivor count: 2 of 10 on day 20
dose: 400.0 mg/kg/injection, schedule: Q07DX002 (ip), vehicle: water
  survivor count: 2 of 10 on day 20

## O=S(=O)(c1ccccc1)N1CN2CCN(C2)C1
[5]
  T/C: 125 % of control
dose: 50.0 mg/kg/injection, schedule: Q07DX002 (ip), vehicle: saline with Tween-80
  T/C: 148 % of control [9 of 10 alive on day 20]

## CCC(C)C1NC(=O)C(CC(C)C)NC(=O)C(C(C)C)NC(=O)C2CSSCC(NC1=O)C(=O)N2 (configuration not stated) (cyclo(CCVLI); disulfide 1-2; configuration not given here)
dose: 512.5 micrograms/kg/injection, schedule: Q07DX002 (ip), vehicle: Klucel (hydroxypropylcellulose) (HPC)
  T/C: 139 % of control
dose: 1025.0 micrograms/kg/injection, schedule: Q07DX002 (ip), vehicle: Klucel (hydroxypropylcellulose) (HPC)
  T/C: 144 % of control
dose: 2050.0 micrograms/kg/injection, schedule: Q07DX002 (ip), vehicle: Klucel (hydroxypropylcellulose) (HPC)
  T/C: 144 % of control
dose: 4100.0 micrograms/kg/injection, schedule: Q07DX002 (ip), vehicle: Klucel (hydroxypropylcellulose) (HPC)
  T/C: 146 % of control

## O=NN(CCCl)C(=O)NC1OC(CO)C(O)C(O)C1O (configuration not stated)
[3]
  survivor count: 3 of 10 on day 20 and 4 of 10 on day 20
[4]
  survivor count: 5 of 10 on day 20
dose: 64.0 mg/kg/injection, schedule: Q07DX002 (ip), vehicle: saline
  survivor count: 0 of 10 on day 20
dose: 128.0 mg/kg/injection, schedule: Q07DX002 (ip), vehicle: saline
  survivor count: 0 of 10 on day 20

## Cc1cc2c(cc1C)C(=O)c1c(O)c3c(c(O)c1C2=O)C[C@@](O)(C(=O)CO)C[C@@H]3OC1CC(N)C(O)C(C)O1 (some centres not stated)
dose: 20.0 mg/kg/injection, schedule: Q07DX002 (ip), vehicle: distilled water + Tween-80
  survivor count: 1 of 10 on day 20

## COC(=O)C(CSC(c1ccccc1)(c1ccccc1)c1ccccc1)NC(=O)C(CC(N)=O)NC(=O)OCc1ccccc1 (stereo not drawn) (Cbz-Asn-Cys(Trt)-OMe; configuration not given here)
dose: 800.0 mg/kg/injection, schedule: Q07DX002 (ip), vehicle: distilled water + Tween-80
  survivor count: 6 of 10 on day 20
dose: 1600.0 mg/kg/injection, schedule: Q07DX002 (ip), vehicle: distilled water + Tween-80
  survivor count: 2 of 9 on day 20

## COC(=O)c1ccoc1
[9]
  T/C: 125 % of control
dose: 50.0 mg/kg/injection, schedule: Q07DX002 (ip), vehicle: saline
  survivor count: 2 of 10 on day 20
[10]
  survivor count: 0 of 10 on day 20

## CC(=O)Oc1c(C)[nH]ccc1=O
dose: 12.5 mg/kg/injection, schedule: Q07DX002 (ip), vehicle: saline
  T/C: 133 % of control
[9]
  T/C: 131 % of control
dose: 200.0 mg/kg/injection, schedule: Q07DX002 (ip), vehicle: saline
  T/C: 130 % of control

## Nc1cc2c(c[n+](CCCCCCCC[n+]3cc4c5ccccc5c(N)cc4c4ccccc43)c3ccccc23)c2ccccc12
dose: 1.88 mg/kg/injection, schedule: Q07DX002 (ip), vehicle: water
  T/C: 140 % of control [9 of 10 alive]
dose: 3.75 mg/kg/injection, schedule: Q07DX002 (ip), vehicle: water
  T/C: 141 % of control

## NC1=NC(=O)N2CC12 (configuration not stated)
[9]
  T/C: 127 % of control [9 of 10 alive on day 20]
dose: 400.0 mg/kg/injection, schedule: Q07DX002 (ip), vehicle: saline
  survivor count: 4 of 10 on day 20
[10]
  survivor count: 0 of 10 on day 20 and 1 of 10 on day 20

## Cn1cnc([N+](=O)[O-])c1Sc1ncn[nH]1
dose: 200.0 mg/kg/injection, schedule: Q07DX002 (ip), vehicle: suspension in saline
  T/C: 128 % of control [8 of 10 alive on day 20]
dose: 800.0 mg/kg/injection, schedule: Q07DX002 (ip), vehicle: suspension in saline
  survivor count: 1 of 10 on day 20

## O=C(Nc1nncs1)c1ccncc1
dose: 100.0 mg/kg/injection, schedule: Q07DX002 (ip), vehicle: saline with Tween-80
  T/C: 128 % of control
[8]
  T/C: 125 % of control
